Whole data set: some 3,200 compounds, median “TSA(without NAD+) / Primary screening (TSA) / delta Tm (K)” near -0.07, cut for the highest 2% near 0.37. The list shows a part of the results.

Protein sequences, listed by entry. Tags and fused reporters are not part of them. Residues count along the entry.
UniProt Q96EB6, 2-747 limits assumed: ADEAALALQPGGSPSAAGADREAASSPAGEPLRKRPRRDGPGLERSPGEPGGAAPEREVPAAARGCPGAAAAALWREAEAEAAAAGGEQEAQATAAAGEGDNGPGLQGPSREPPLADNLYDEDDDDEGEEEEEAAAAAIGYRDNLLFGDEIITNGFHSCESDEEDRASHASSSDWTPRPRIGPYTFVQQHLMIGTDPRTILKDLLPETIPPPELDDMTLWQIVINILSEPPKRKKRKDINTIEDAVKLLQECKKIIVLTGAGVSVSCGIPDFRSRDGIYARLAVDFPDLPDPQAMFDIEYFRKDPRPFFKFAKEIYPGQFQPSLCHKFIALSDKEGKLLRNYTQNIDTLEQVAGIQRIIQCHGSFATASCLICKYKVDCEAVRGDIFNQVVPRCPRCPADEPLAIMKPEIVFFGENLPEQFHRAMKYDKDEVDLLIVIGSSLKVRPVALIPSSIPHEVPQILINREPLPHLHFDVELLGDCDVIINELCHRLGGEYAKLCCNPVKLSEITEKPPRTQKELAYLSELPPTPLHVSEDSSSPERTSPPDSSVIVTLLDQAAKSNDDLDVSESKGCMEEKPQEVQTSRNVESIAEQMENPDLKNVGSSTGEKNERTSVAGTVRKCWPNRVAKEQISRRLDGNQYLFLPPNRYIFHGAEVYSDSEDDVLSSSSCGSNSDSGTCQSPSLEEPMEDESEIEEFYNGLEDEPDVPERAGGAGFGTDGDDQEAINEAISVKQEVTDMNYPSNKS

The target in the assay is NAD-dependent deacetylase Sirtuin 1 (human, UniProt Q96EB6). Kind of assay: primary screen, delta tm. On the set-up: single well (n = 1). The conditions noted are these: 10 µM. The essentials: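 Thermal shift of Sirtuin 1 measured without NAD+, compound at 10 µM (n = 1); value is ΔTm, with hits defined as ΔTm > 0.45 K or < −1.5 K. Hits retested at 5, 10, 20 µM (n = 4) and counterscreened on bovine carbonic anhydrase and ABL1 SH2 domain.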
`CNCC1CCN(S(=O)(=O)c2ccc(C#N)cc2C)CC1`: the “TSA(without NAD+) / Primary screening (TSA) / delta Tm (K)” value was determined as 0.12 K.
In the case of `NCCN1CCC1` it was -0.03 K; in that of `O=C(NCC1CC2c3ccccc3C1c1ccccc12)c1cnccn1` (centres unmarked), -0.17 K.
With `COc1cc(CN(C)C(=O)Cc2c[nH]c3ccccc23)ccc1OCc1ccccc1`, the “TSA(without NAD+) / Primary screening (TSA) / delta Tm (K)” value is -0.07 K.
Next, `COc1ccccc1/C=C1/Oc2cc(O)ccc2C1=O`: -0.11 K; `COc1ccc(CCNC(=O)CSc2nnc(C)s2)cc1OC`: -0.12 K; `Cc1nc(-c2ccccc2)sc1C(=O)C1=C(O)C(=O)N(CCN2CCOCC2)C1c1cccs1` (centres unmarked): -0.05 K.
Next, `COc1ccc(-c2nn(-c3ccccc3)cc2CN(CCCCCCN(Cc2cn(-c3ccccc3)nc2-c2ccc(OC)cc2)C(=O)CCC(=O)O)C(=O)CCC(=O)O)cc1`: 0.37 K; `O=C(C1CCN(c2cc(=O)n3ccccc3n2)CC1)N1CCCCC1`: 0.02 K.
With `Cc1nn(C)c2ncc(S(=O)(=O)N(C)c3ccc(F)cc3)cc12`, the “TSA(without NAD+) / Primary screening (TSA) / delta Tm (K)” value was -0.22 K.
In the case of `Cc1cc(NC(=O)N2Cc3cc4c(cc3C3(CCCC3)C2)OCCO4)no1` it was -0.33 K; in that of `Cc1cc(=O)[nH]c(-c2cccc(NC(=O)c3ccc4c(c3)CCC4)c2)n1`, -0.04 K.
In the case of `CN(Cc1cccc(F)c1)C(=O)c1cnc2ccccn2c1=O` it was 0.13 K.
Consider `Cc1noc(COC(=O)c2cc(-c3ccc(C)o3)nc3ccccc23)n1`, for which the “TSA(without NAD+) / Primary screening (TSA) / delta Tm (K)” value was -0.01 K.
Take `c1ccc(-n2ncc3c(N4CCCO4)ncnc32)cc1`: the “TSA(without NAD+) / Primary screening (TSA) / delta Tm (K)” value is reported as -0.31 K.
In the case of `O=C(CCc1c[nH]c2ccccc12)Nc1cccc(S(=O)(=O)NCc2ccco2)c1` it was -0.01 K; in that of `CN(CCCNC(=O)N[C@@H]1c2ccccc2C[C@@H]1O)S(C)(=O)=O`, -0.08 K; in that of `Cn1c(SCc2nc3ccccc3s2)nc2ccsc2c1=O`, -0.24 K.
Next, `O=C(NCC(=O)N1CC=C(c2ccccc2)CC1)NCc1ccccc1`: -0.12 K.
Next, `O=c1[nH]c(CNc2ccc3c(c2)OCO3)nc2ccsc12`: -0.17 K.
As to `O=S1CCN(c2ncnc3ccsc23)CC1`, the “TSA(without NAD+) / Primary screening (TSA) / delta Tm (K)” value is -0.11 K.
In the case of `O=C(O)[C@@H](O)[C@H](O)C(=O)O` it was -0.22 K; in that of `Cc1cc(C=C2C(=O)NC(=S)NC2=O)c(C)n1-c1ccc(F)cc1`, -0.42 K.
Consider `COc1ccc(-c2cc(NC(=O)Cc3n[nH]c(=O)c4ccccc34)ccc2OC(F)F)cc1`, for which the “TSA(without NAD+) / Primary screening (TSA) / delta Tm (K)” value is 0.16 K.
In the case of `O=C(Cc1cccc2ccccc12)NCCN/C(O)=C1\N=CC=CC1=O` it was -0.05 K; in that of `NC(=O)c1cnc(N2CCCC(c3nnc[nH]3)C2)c(Cl)c1` (centres unmarked), 0.02 K.
Next, `CC(NC(=O)c1ccc2c(c1)CCC(=O)N2)c1ccc2c(c1)CC(=O)N2` (centres unmarked): -0.32 K; `CC(C)n1nc(C(=O)Nc2cccc(S(=O)(=O)NCc3ccco3)c2)c2ccccc2c1=O`: -0.05 K.
Next, `COc1ccc(C2C(C(=O)c3ccc(F)cc3)=C(O)C(=O)N2CCCN2CCOCC2)cc1` (centres unmarked): 0.32 K; `Cc1cc2oc(=O)cc(CN3CCC(NS(C)(=O)=O)CC3)c2cc1C`: -0.02 K.
Turning to `CCN(C(=O)CSc1nnc(NC2CCCCC2)s1)C1CCS(=O)(=O)C1` (centres unmarked), the “TSA(without NAD+) / Primary screening (TSA) / delta Tm (K)” value is recorded as -0.05 K.
In the case of `CCCCC(N)CN` (centres unmarked) it was -0.12 K; in that of `NC(=O)COC(=O)C1CCCN(C2=NS(=O)(=O)c3ccccc32)C1` (centres unmarked), -0.23 K.
In the case of `O=C(Nc1cc(S(=O)(=O)N2CCOCC2)ccc1Oc1ccccc1)C1=COCCO1` it was -0.04 K; in that of `COc1ccc(N(C)S(=O)(=O)c2cccc(C(=O)Nc3cccc(C#N)c3)c2)cc1`, 0.22 K; in that of `COC(=O)c1cn(CC(=O)N2CCc3ccc(O)cc3C2)c2ccccc12`, 0.08 K.
In the case of `O=C1CC(C(=O)Nc2ccc(-c3csc(N4CCOCC4)n3)cc2)c2ccc(F)cc2N1` (centres unmarked) it was 0.06 K.
As to `Cc1cc(-c2csc(NC(=O)c3nn(C)c(=O)c4ccccc34)n2)c(C)n1CCc1ccccc1`, the “TSA(without NAD+) / Primary screening (TSA) / delta Tm (K)” value is -0.11 K.
In the case of `O=C(COc1ccccc1C(=O)Nc1ccc(S(=O)(=O)Nc2nccs2)cc1)Nc1cccc(C(F)(F)F)c1` it was 0.98 K; in that of `CC(=O)Nc1ccc(NC(=O)c2cccc(S(=O)(=O)N(C)c3ccc(C)cc3)c2)cc1`, -0.11 K; in that of `Cc1nn2cccnc2c1C(=O)NCc1ccc(-c2nnn[nH]2)cc1`, 0.08 K.
Next, `CCC(=O)CN`: -0.22 K.
In the case of `COc1ccc(NS(=O)(=O)c2cccc(C(=O)NNC(=O)C34CC5CC(CC(C5)C3)C4)c2)cc1` it was -0.05 K; in that of `COc1ccc(C(=O)C2=C(O)C(=O)N(CCCN3CCOCC3)C2c2ccc(C)cc2)cc1C` (centres unmarked), -0.15 K.
With `CC(C)CCCN`, the “TSA(without NAD+) / Primary screening (TSA) / delta Tm (K)” value is reported as -0.13 K.
Regarding `NC(=O)C1CCN(C(=O)c2ccc3[nH]c4c(c3c2)CCCC4)CC1`, the “TSA(without NAD+) / Primary screening (TSA) / delta Tm (K)” value is listed as 0.17 K.
In the case of `Cc1cc(C2CCN(c3ncnc4sc5c(c34)CCC5)CC2)[nH]n1` it was -0.21 K; in that of `C=CCN(C)C(=O)NC(C)c1ccc(NC(=O)c2ccncc2)cc1` (centres unmarked), -0.18 K; in that of `Cc1cc(NCc2cccnc2N2CCC(C(N)=O)CC2)nc(C)n1`, 0.07 K.
Next, `CNC(C)CN` (centres unmarked): -0.08 K; `Cn1ncc2c(N3CCN(CCC(=O)Nc4sccc4C(N)=O)CC3)ncnc21`: 0.06 K; `O=C(NCC1CCCN(Cc2cccs2)C1)c1ccc2n[n-]nc2c1` (centres unmarked): -0.12 K.
As for `CC(C)Oc1ccc(C(=O)C2=C(O)C(=O)N(CCCN3CCOCC3)C2c2ccncc2)cc1` (centres unmarked), the “TSA(without NAD+) / Primary screening (TSA) / delta Tm (K)” value is given as -0.07 K.
Next, `Cc1nc(-c2ccc(CCNC(=O)CN3CCCCCCC3=O)cc2)cs1`: -0.02 K.
Next, `Nc1nccnc1C(=O)NCC1CC2c3ccccc3C1c1ccccc12` (centres unmarked): -0.22 K; `CN1C(=O)N(CCC23CC4CC(CC(C4)C2)C3)C(=O)C12CCCCC2`: -0.22 K.
In the case of `O=C(NCCc1c[nH]c2ccccc12)c1c[nH]cnc1=O` it was 0.02 K; in that of `Cc1cccc(Cc2cnc(NC(=O)c3cc4c(C)nn(-c5ccccc5)c4s3)s2)c1`, -0.01 K.
Turning to `CS(=O)(=O)NCC1CCCN(C(=O)c2ccc3[nH]c4c(c3c2)CCCCC4)C1` (centres unmarked), the “TSA(without NAD+) / Primary screening (TSA) / delta Tm (K)” value is reported as -0.21 K.
Next, `CC(C(=O)N1CCCC1)N1CCN(Cc2csc3ccccc23)CC1` (centres unmarked): -0.03 K; `CC(N)CN` (centres unmarked): -0.03 K; `Cc1ccc(NS(=O)(=O)c2cccc(C(=O)NC3CCC(CC4CCC(NC(=O)c5cccc(S(=O)(=O)Nc6ccc(C)cc6C)c5)CC4)CC3)c2)c(C)c1` (centres unmarked): 0.03 K.
Consider `Cc1noc(C(NC(=O)c2cc(C(N)=O)cs2)C(C)C)n1` (centres unmarked), for which the “TSA(without NAD+) / Primary screening (TSA) / delta Tm (K)” value is on record as 0.02 K.
Take `Cc1ccc(-n2cnc3c2CCNC3)cc1`: the “TSA(without NAD+) / Primary screening (TSA) / delta Tm (K)” value is reported as -0.22 K.
In the case of `CC1CCN(c2ccc(NC(=O)CSc3nnc(NCc4ccco4)s3)cc2)CC1` it was -0.02 K.
In the case of `Cc1nc2ncnn2c(N2CCn3c(nnc3-c3ccccc3)C2)c1C` it was -0.17 K; in that of `CCCCCC(C)NC(=O)c1cccc(S(=O)(=O)N(C)c2ccc(OC)cc2)c1` (centres unmarked), 0.25 K; in that of `COc1ccc(C(CNC=C2C(=O)NC(=S)NC2=O)N(C)C)cc1` (centres unmarked), -0.04 K.
On to `COc1ccccc1NC(=O)C1CCN(C(=O)Nc2ccc(C)cc2OCc2ccccc2)CC1`, for which the “TSA(without NAD+) / Primary screening (TSA) / delta Tm (K)” value is given as -0.01 K.
On to `O=c1[nH]c2ccccc2c(=O)n1CCSCCCO`, for which the “TSA(without NAD+) / Primary screening (TSA) / delta Tm (K)” value was -0.02 K.
Next, `O=C(CSc1nnnn1-c1ccc(O)cc1)N1N=C(c2ccc3ccccc3c2)CC1c1ccccc1` (centres unmarked): 0.49 K; `O=C(NC1CCSc2ccccc21)c1ccc2c(=O)n3c(nc2c1)CCC3` (centres unmarked): -0.02 K.
In the case of `NC(=O)c1ccc(CN2CCSCC2)cc1` it was 0.06 K; in that of `N#CC(C(=O)c1ccc([N+](=O)[O-])s1)=C1Nc2ccccc2N1`, -0.27 K; in that of `NNC(=O)COc1ccccc1Cl`, -0.08 K.
Next, `O=c1cc(NCC2COc3ccccc3O2)nc2ccccn12` (centres unmarked): -0.13 K; `CC1CCN(c2nnc(SCC(=O)Nc3sc4c(c3C(N)=O)CCC4)n2C2CC2)CC1`: 0.15 K.
Regarding `O=C(NCc1ccc(S(=O)(=O)N2CCOCC2)cc1)C12CC3CC(C1)CC(c1ccccc1)(C3)C2`, the “TSA(without NAD+) / Primary screening (TSA) / delta Tm (K)” value was -0.02 K.
For the compound `COC(=O)C1Cc2ccccc2N1` (centres unmarked), the “TSA(without NAD+) / Primary screening (TSA) / delta Tm (K)” value was -0.23 K.
In the case of `O=C(COc1ccc(Cl)cc1)OCCCC(=O)c1ccc(F)cc1` it was -0.11 K.
Consider `Cc1c(-c2ccccc2)sc(NC(=O)C23CC4CC(CC(O)(C4)C2)C3)c1C(=O)N1CCOCC1`, for which the “TSA(without NAD+) / Primary screening (TSA) / delta Tm (K)” value is on record as -0.02 K.
Next, `O=C(C1=C(O)C(=O)N(CCCN2CCOCC2)C1c1ccco1)c1cc2ccccc2o1` (centres unmarked): 0.02 K; `CCOc1ccc(C2C(C(=O)c3sc(C)nc3C)=C(O)C(=O)N2CCCN2CCOCC2)cc1` (centres unmarked): -0.28 K.
As for `NC(=O)c1ccc(C(=O)N2Cc3cc4c(cc3C3(CCCC3)C2)OCCO4)cc1`, the “TSA(without NAD+) / Primary screening (TSA) / delta Tm (K)” value is -0.08 K.
In the case of `CN(Cc1ccco1)C(=O)CSc1nccn1Cc1ccccn1` it was -0.08 K; in that of `COc1cccc(C(=O)C2=C(O)C(=O)N(CCCN3CCOCC3)C2c2ccc(C)o2)c1` (centres unmarked), -0.02 K; in that of `Cc1nc(-c2ccc(NC(=O)C3Cc4ccccc4O3)cc2)co1` (centres unmarked), 0.15 K.
Next, `NC(=O)c1ccc2[nH]c3c(c2c1)CCCC3`: 0.12 K.
In the case of `COC(C)(C)CN` it was 0.02 K; in that of `Cc1noc(C)c1CNc1ncnc2ccsc12`, -0.31 K; in that of `NC(=O)c1cc(NC(=O)CC(c2ccccc2)c2ccccc2)cc(C(N)=O)c1`, -0.02 K.
As to `COC(=O)c1cc(Br)cc(C(=O)O)c1`, the “TSA(without NAD+) / Primary screening (TSA) / delta Tm (K)” value was -0.17 K.

The values are drawn from PMC6925144, “A prospective compound screening contest identified broader inhibitors for Sirtuin 1” (Scientific Reports, 2019).
